Data as given in patent US20030091564A1.
Where a chain is given by its changes, count along the chain named. These are yes or no findings as the source states them, for the method shown. Some results given as binding are weak or reduced against the parent protein; the word gives no strength. Tags and fused reporters may be left off the sequences shown. Blank lines part the entries; values can stand above or below the binder they belong to.

Target: CD40/Fc fusion protein (human) (UniProt P25942)
Assay: solid phase CD40 binding assay substantially as in Example 16

binding: binds
B1: CD40 ligand/zipper domain fusion protein mutant 18 (ligand)
chain: RMKQIEDKIEEIPSKIYHIENEIARIKKLIGERDKIEDERNLHEDFVFMKTIQRCNTGERSLSLLNCEEIKSQFEGFVKDIMLNKEETKKENSFEMQKGDQNPQIAAHVISEPSSKTTSVLQWAEKGYYTMSNNLVTLENGKQLTVKRQGLYYIYAQVTFCSNQEASSQAPFIASLCLKSPGRFERILLRAANTHSSAKPCGQQSIHLGGVFELQPGASVFVNVTDPSQVSHGTGFTSFGLLKL

binding: binds
B2: CD40 ligand/zipper domain fusion protein mutant 43 (ligand)
chain: B1 chain with P13L, I16N, P113A, T117S, K147I, Q164R, Q169L, N193S
